Test results as given in the supplement of paper PMC6411743.
± gives the standard deviation of the averaged measurements. This is one part of the list.

Chains of the proteins cited; added tags and fusions are not shown. Lines headed by an entry give the natural chain unless they say otherwise; changes in a name come on top.
UniProt P08240: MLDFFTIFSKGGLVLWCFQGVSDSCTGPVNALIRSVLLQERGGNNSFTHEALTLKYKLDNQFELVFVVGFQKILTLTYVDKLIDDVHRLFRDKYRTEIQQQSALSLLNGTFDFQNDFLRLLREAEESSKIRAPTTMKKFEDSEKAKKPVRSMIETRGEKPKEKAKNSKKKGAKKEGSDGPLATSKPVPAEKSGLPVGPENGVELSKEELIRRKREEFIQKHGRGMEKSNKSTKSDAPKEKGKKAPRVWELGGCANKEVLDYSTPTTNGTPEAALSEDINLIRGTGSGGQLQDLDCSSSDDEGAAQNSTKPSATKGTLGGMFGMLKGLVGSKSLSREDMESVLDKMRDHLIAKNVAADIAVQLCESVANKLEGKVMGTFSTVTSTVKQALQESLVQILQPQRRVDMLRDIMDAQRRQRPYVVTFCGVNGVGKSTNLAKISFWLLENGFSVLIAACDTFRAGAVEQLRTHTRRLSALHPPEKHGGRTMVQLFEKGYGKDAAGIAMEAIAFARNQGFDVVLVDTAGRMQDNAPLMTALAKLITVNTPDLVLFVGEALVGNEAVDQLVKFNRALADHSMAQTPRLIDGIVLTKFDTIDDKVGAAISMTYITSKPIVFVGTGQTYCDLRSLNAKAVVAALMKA
UniProt P18858, whole entry: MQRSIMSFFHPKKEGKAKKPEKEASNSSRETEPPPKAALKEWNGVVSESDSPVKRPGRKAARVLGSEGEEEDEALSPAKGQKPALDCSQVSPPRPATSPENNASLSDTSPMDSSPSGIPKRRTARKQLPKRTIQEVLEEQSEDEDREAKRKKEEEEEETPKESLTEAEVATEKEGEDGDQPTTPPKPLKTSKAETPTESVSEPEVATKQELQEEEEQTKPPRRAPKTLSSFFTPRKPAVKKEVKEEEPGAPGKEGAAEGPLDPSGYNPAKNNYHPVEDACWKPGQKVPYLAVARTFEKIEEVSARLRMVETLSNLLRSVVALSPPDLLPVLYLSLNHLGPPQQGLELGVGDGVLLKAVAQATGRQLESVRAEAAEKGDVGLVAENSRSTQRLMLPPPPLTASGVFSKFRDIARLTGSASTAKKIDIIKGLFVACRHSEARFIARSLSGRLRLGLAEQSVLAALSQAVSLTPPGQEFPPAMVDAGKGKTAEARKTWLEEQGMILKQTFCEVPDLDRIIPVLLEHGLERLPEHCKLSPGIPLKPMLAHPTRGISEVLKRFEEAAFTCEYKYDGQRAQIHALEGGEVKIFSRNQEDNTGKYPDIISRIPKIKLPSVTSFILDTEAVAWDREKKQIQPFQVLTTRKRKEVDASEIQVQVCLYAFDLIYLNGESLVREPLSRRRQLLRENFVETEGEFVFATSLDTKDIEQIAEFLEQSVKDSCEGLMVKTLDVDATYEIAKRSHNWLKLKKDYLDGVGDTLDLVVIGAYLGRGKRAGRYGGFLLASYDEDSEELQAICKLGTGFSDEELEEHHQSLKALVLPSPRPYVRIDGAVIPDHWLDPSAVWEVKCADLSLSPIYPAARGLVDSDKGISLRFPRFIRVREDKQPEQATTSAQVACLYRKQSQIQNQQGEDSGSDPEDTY
UniProt P07737, whole entry: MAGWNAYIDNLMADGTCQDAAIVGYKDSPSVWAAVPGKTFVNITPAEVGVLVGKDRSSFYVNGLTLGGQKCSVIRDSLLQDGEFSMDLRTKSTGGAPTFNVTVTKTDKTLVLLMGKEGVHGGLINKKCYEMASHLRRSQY
UniProt P25054, whole entry: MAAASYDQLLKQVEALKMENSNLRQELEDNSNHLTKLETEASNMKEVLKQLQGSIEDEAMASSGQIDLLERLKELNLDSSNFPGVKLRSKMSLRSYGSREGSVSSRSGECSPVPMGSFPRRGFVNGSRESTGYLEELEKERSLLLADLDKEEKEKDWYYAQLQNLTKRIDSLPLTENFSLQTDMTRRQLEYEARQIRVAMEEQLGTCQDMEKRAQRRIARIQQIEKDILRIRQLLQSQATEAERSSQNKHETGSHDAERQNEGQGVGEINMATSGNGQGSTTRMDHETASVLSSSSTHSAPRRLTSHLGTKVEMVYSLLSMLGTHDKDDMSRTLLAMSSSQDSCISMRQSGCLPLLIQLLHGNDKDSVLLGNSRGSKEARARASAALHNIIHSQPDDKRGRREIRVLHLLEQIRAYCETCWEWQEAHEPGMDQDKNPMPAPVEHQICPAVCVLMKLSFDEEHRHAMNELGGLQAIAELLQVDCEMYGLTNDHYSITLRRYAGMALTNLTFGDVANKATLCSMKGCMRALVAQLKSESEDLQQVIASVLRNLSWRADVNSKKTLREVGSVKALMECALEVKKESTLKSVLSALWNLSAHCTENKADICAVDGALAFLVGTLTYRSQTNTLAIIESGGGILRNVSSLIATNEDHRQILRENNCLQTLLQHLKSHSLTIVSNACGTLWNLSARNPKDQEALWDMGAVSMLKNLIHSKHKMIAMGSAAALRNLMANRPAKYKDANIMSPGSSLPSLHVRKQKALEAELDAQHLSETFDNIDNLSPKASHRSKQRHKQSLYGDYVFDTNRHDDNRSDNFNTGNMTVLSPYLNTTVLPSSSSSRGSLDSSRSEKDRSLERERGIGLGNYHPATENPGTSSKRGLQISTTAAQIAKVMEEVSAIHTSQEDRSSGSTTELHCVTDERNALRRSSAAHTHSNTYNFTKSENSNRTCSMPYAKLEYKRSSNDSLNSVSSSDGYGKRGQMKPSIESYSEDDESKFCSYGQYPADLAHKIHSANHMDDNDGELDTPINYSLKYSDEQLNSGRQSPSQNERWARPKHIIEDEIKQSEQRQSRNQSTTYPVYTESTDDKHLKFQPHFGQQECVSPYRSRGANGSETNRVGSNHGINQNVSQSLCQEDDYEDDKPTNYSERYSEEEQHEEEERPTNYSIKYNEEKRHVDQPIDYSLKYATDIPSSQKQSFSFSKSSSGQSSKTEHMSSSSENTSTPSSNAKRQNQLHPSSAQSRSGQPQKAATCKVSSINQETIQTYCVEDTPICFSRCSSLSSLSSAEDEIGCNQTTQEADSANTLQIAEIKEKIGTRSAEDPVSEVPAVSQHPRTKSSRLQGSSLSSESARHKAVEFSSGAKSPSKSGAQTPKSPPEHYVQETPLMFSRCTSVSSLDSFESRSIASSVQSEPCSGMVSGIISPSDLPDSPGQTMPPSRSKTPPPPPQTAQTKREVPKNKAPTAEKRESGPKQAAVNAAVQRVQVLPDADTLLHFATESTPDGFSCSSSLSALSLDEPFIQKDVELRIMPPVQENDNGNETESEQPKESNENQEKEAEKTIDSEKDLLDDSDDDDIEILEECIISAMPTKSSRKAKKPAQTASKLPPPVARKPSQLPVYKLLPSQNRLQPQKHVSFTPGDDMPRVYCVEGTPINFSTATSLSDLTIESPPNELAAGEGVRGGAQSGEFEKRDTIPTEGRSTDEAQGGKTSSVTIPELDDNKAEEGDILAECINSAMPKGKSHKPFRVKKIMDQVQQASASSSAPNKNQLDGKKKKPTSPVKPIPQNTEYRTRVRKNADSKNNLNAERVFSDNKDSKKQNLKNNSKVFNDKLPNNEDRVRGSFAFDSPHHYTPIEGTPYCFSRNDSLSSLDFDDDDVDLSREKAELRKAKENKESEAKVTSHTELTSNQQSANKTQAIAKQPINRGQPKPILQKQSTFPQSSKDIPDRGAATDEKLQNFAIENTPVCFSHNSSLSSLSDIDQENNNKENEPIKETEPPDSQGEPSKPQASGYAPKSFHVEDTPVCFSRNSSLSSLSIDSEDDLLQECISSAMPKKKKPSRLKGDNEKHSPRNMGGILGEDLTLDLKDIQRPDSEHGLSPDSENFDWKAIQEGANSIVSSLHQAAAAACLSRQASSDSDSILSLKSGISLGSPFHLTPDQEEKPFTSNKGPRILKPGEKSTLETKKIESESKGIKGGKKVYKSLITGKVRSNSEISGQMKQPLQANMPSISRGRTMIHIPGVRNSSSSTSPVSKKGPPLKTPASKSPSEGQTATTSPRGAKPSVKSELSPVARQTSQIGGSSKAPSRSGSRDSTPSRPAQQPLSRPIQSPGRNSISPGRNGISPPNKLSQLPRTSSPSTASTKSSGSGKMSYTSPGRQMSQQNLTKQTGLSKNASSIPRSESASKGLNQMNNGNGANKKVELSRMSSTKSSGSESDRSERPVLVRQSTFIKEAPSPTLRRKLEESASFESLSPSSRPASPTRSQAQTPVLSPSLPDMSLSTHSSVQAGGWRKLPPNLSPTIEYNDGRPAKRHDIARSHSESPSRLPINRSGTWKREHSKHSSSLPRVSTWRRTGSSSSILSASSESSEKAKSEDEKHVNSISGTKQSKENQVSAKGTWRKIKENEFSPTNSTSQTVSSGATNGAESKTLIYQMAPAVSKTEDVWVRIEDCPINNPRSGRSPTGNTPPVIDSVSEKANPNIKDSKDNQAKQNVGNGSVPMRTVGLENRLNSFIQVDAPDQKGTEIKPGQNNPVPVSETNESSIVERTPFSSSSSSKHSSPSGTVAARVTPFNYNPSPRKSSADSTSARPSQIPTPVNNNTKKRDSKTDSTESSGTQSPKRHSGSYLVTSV
UniProt P17568, whole entry: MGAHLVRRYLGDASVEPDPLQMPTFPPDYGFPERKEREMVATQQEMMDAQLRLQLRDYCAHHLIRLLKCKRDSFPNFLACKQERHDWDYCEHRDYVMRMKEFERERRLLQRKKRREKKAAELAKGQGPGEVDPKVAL
UniProt P08579, whole entry: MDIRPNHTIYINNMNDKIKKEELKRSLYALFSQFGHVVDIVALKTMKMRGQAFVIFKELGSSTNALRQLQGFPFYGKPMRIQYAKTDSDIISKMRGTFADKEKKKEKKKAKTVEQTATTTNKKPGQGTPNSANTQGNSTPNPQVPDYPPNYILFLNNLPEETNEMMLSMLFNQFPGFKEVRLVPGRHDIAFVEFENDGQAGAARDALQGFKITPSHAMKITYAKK
UniProt P18615, whole entry: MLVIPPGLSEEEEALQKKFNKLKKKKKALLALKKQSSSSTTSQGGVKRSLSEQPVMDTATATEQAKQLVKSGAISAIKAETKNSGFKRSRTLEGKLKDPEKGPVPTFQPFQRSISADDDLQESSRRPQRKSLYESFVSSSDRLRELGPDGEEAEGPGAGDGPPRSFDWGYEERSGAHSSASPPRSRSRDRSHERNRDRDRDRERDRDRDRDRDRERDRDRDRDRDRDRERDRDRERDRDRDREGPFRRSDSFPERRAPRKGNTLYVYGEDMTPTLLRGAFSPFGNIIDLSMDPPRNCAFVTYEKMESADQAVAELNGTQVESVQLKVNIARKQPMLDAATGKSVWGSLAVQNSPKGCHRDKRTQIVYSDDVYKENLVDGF
UniProt P09417: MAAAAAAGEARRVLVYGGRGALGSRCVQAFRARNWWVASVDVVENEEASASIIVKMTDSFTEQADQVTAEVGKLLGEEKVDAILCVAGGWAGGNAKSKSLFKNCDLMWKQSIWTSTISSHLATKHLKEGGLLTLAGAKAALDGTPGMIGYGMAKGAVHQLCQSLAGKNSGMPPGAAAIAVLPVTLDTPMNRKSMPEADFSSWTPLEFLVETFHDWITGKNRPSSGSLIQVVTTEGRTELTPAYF
UniProt P20339: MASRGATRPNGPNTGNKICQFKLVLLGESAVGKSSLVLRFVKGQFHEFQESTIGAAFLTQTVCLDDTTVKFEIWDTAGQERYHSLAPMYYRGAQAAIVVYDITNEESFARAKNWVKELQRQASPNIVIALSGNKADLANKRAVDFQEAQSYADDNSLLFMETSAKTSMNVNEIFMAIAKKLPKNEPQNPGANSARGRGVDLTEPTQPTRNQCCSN
UniProt P09132: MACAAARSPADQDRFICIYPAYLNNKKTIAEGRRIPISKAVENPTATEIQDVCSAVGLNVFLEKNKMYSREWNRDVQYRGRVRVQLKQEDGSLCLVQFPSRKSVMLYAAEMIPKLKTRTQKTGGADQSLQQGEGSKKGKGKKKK

Compound: Nc1nc2c(ncn2[C@@H]2O[C@H](COP(=O)(O)OP(=O)(O)OP(=O)(O)O)[C@@H](O)[C@H]2O)c(=O)[nH]1 [guanosine triphosphate]
Test: NP40-soluble protein abundance relative to vehicle (solubility fold change) (ratio); higher = more soluble protein in presence of GTP
Outline: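 Eight concentrations, 0.1 to 10 mM, were tested on Jurkat crude lysate for 10 min at room temperature and then 3 min at 37 °C, in three independent experiments. The lysate was solubilised with 0.8% NP40 and benzonase, ultracentrifuged, and the supernatant TMT-labelled for LC-MS/MS. Each value is the fold change against the detergent-processed vehicle in its own replicate, from vsn-normalised intensities.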

Target	NP40-soluble protein abundance (concentration: 0.1mM)	NP40-soluble protein abundance (concentration: 0.5mM)	NP40-soluble protein abundance (concentration: 1mM)	NP40-soluble protein abundance (concentration: 2mM)	NP40-soluble protein abundance (concentration: 4mM)	NP40-soluble protein abundance (concentration: 6mM)	NP40-soluble protein abundance (concentration: 8mM)	NP40-soluble protein abundance (concentration: 10mM)
UniProt P25705 and related entries	0.981 ± 0.022	1.04 ± 0.057	0.998 ± 0.062	1.01 ± 0.087	0.986 ± 0.088	1.03 ± 0.11	1.01 ± 0.11	0.995 ± 0.098
ERCC3 (UniProt P19447)	0.994 ± 0.035	1.04 ± 0.016	1.05 ± 0.024	1.03 ± 0.025	1.03 ± 0.045	1.12 ± 0.026	1.09 ± 0.045	1.03 ± 0.021
UniProt P17252	1.002 ± 0.004	1.01 ± 0.023	0.961 ± 0.033	0.926 ± 0.043	0.921 ± 0.05	0.932 ± 0.047	0.913 ± 0.025	0.885 ± 0.063
UniProt P18433 and related entries	0.993 ± 0.049	0.995 ± 0.11	0.966 ± 0.076	0.939 ± 0.075	0.938 ± 0.11	0.941 ± 0.11	0.957 ± 0.062	0.952 ± 0.13
CYC1 (UniProt P08574)	1.01 ± 0.039	1.02 ± 0.036	0.995 ± 0.022	1.01 ± 0.041	0.961 ± 0.068	0.957 ± 0.035	0.947 ± 0.037	0.918 ± 0.038
UniProt P08240	0.992 ± 0.025	1.018 ± 0.0088	0.997 ± 0.028	1.01 ± 0.026	1.02 ± 0.033	1.04 ± 0.039	1.05 ± 0.03	1.02 ± 0.057
LIG1 (UniProt P18858)	0.993 ± 0.032	0.993 ± 0.031	0.962 ± 0.044	0.925 ± 0.029	0.921 ± 0.043	0.916 ± 0.045	0.941 ± 0.052	0.89 ± 0.041
P4HB (UniProt P07237)	0.855 ± 0.1	0.976 ± 0.11	0.834 ± 0.08	0.923 ± 0.18	0.89 ± 0.17	0.795 ± 0.054	0.866 ± 0.054	0.775 ± 0.071
DDX6 (UniProt P26196)	0.988 ± 0.049	0.999 ± 0.03	0.952 ± 0.033	0.9702 ± 0.004	0.984 ± 0.035	1 ± 0.025	0.95 ± 0.064	0.952 ± 0.05
UniProt P07737 and related entries	0.925 ± 0.13	0.909 ± 0.095	0.927 ± 0.13	0.858 ± 0.096	0.866 ± 0.12	0.842 ± 0.099	0.857 ± 0.11	0.862 ± 0.11
HSPA5 (UniProt P11021)	0.914 ± 0.091	0.952 ± 0.088	0.937 ± 0.088	0.896 ± 0.11	0.877 ± 0.093	0.916 ± 0.089	0.924 ± 0.079	0.921 ± 0.092
UniProt P12429 and related entries	0.981 ± 0.1	0.961 ± 0.066	0.968 ± 0.027	0.875 ± 0.025	0.921 ± 0.051	0.859 ± 0.03	0.891 ± 0.045	0.87 ± 0.055
UniProt P16278 and related entries	1.07 ± 0.032	1.06 ± 0.065	1.03 ± 0.026	1.04 ± 0.064	1.04 ± 0.059	0.998 ± 0.085	0.984 ± 0.07	1.01 ± 0.06
COX5B (UniProt P10606)	0.9 ± 0.051	0.965 ± 0.079	0.965 ± 0.067	0.969 ± 0.096	0.97 ± 0.14	1.02 ± 0.11	1.05 ± 0.11	1.09 ± 0.15
UniProt P13674 and related entries	0.9729 ± 0.0096	0.995 ± 0.043	0.999 ± 0.023	1.01 ± 0.05	1.01 ± 0.088	1.03 ± 0.034	1.06 ± 0.11	1.04 ± 0.057
CREB1 (UniProt P16220)	0.911 ± 0.17	0.9 ± 0.049	0.902 ± 0.13	0.902 ± 0.11	0.922 ± 0.17	0.87 ± 0.078	0.877 ± 0.13	0.949 ± 0.15
UniProt P25054 and related entries	1.07 ± 0.038	1.083 ± 0.007	1.16 ± 0.1	1.14 ± 0.12	1.07 ± 0.086	1.12 ± 0.12	1.147 ± 0.0081	1.15 ± 0.062
NDUFB7 (UniProt P17568)	1.07 ± 0.17	1.15 ± 0.12	1.16 ± 0.14	1.19 ± 0.17	1.3 ± 0.28	1.47 ± 0.26	1.54 ± 0.056	1.72 ± 0.34
UniProt P07355 and related entries	0.921 ± 0.022	0.928 ± 0.037	0.887 ± 0.038	0.887 ± 0.04	0.843 ± 0.049	0.872 ± 0.048	0.822 ± 0.076	0.85 ± 0.055
UniProt P14921 and related entries	0.957 ± 0.031	0.965 ± 0.021	0.926 ± 0.074	0.885 ± 0.082	0.905 ± 0.088	0.882 ± 0.11	0.895 ± 0.052	0.884 ± 0.084
UniProt P13807 and related entries	1.18 ± 0.19	1.25 ± 0.44	1.28 ± 0.61	1.34 ± 0.74	1.25 ± 0.61	1.1 ± 0.59	1.05 ± 0.52	1.02 ± 0.59
SNRPB2 (UniProt P08579)	0.959 ± 0.086	0.89 ± 0.03	1.06 ± 0.054	1.03 ± 0.033	1.1 ± 0.066	1.05 ± 0.018	1.07 ± 0.11	1.07 ± 0.05
UniProt P23025 and related entries	1.07 ± 0.044	1.08 ± 0.049	1.21 ± 0.054	1.02 ± 0.1	1.05 ± 0.074	1.08 ± 0.14	1.12 ± 0.028	1.08 ± 0.097
UniProt P18615	0.954 ± 0.11	1 ± 0.13	0.962 ± 0.13	0.956 ± 0.12	0.959 ± 0.13	0.957 ± 0.13	0.963 ± 0.1	0.971 ± 0.12
QDPR (UniProt P09417)	1.04 ± 0.11	0.961 ± 0.11	0.973 ± 0.1	0.951 ± 0.068	0.998 ± 0.09	0.906 ± 0.092	0.909 ± 0.1	0.937 ± 0.099
UniProt P20339 and related entries	0.999 ± 0.016	1.08 ± 0.04	0.875 ± 0.057	0.937 ± 0.059	0.865 ± 0.034	0.85 ± 0.024	0.82 ± 0.13	0.828 ± 0.14
UniProt P09132 and related entries	0.94 ± 0.04	0.938 ± 0.05	1.07 ± 0.055	1.1 ± 0.052	1.11 ± 0.047	1.15 ± 0.035	1.17 ± 0.055	1.2 ± 0.069
RAB4A (UniProt P20338)	0.901 ± 0.063	1 ± 0.098	0.866 ± 0.093	0.842 ± 0.1	0.772 ± 0.072	0.834 ± 0.092	0.757 ± 0.11	0.802 ± 0.15

In another format: entries from further up
Target | NP40-soluble protein abundance (concentration: 0.1mM) | NP40-soluble protein abundance (concentration: 0.5mM) | NP40-soluble protein abundance (concentration: 1mM) | NP40-soluble protein abundance (concentration: 2mM) | NP40-soluble protein abundance (concentration: 4mM) | NP40-soluble protein abundance (concentration: 6mM) | NP40-soluble protein abundance (concentration: 8mM) | NP40-soluble protein abundance (concentration: 10mM)
UniProt P13807 and related entries | 1.18 ± 0.19 | 1.25 ± 0.44 | 1.28 ± 0.61 | 1.34 ± 0.74 | 1.25 ± 0.61 | 1.1 ± 0.59 | 1.05 ± 0.52 | 1.02 ± 0.59
SNRPB2 (UniProt P08579) | 0.959 ± 0.086 | 0.89 ± 0.03 | 1.06 ± 0.054 | 1.03 ± 0.033 | 1.1 ± 0.066 | 1.05 ± 0.018 | 1.07 ± 0.11 | 1.07 ± 0.05
UniProt P23025 and related entries | 1.07 ± 0.044 | 1.08 ± 0.049 | 1.21 ± 0.054 | 1.02 ± 0.1 | 1.05 ± 0.074 | 1.08 ± 0.14 | 1.12 ± 0.028 | 1.08 ± 0.097
UniProt P18615 | 0.954 ± 0.11 | 1 ± 0.13 | 0.962 ± 0.13 | 0.956 ± 0.12 | 0.959 ± 0.13 | 0.957 ± 0.13 | 0.963 ± 0.1 | 0.971 ± 0.12
QDPR (UniProt P09417) | 1.04 ± 0.11 | 0.961 ± 0.11 | 0.973 ± 0.1 | 0.951 ± 0.068 | 0.998 ± 0.09 | 0.906 ± 0.092 | 0.909 ± 0.1 | 0.937 ± 0.099
UniProt P20339 and related entries | 0.999 ± 0.016 | 1.08 ± 0.04 | 0.875 ± 0.057 | 0.937 ± 0.059 | 0.865 ± 0.034 | 0.85 ± 0.024 | 0.82 ± 0.13 | 0.828 ± 0.14
UniProt P09132 and related entries | 0.94 ± 0.04 | 0.938 ± 0.05 | 1.07 ± 0.055 | 1.1 ± 0.052 | 1.11 ± 0.047 | 1.15 ± 0.035 | 1.17 ± 0.055 | 1.2 ± 0.069
RAB4A (UniProt P20338) | 0.901 ± 0.063 | 1 ± 0.098 | 0.866 ± 0.093 | 0.842 ± 0.1 | 0.772 ± 0.072 | 0.834 ± 0.092 | 0.757 ± 0.11 | 0.802 ± 0.15
